Assay results as given in patent US20120329761A1, “USE OF TIGECYCLINE FOR TREATMENT OF CANCER” (UNIVERSITY HEALTH NETWORK, priority 2010, published 2012).
At least one structure is not confirmed: it was looked up by name or label, or the drawing left a doubt.

Tested on: TEX cells
Assay: Cell viability, MTS assay, 72 hours, tetracycline analogues
Type: cell-based, human
Details: concentrations up to 25 μM

CN(C)c1ccc(O)c2c1C[C@H]1C[C@H]3[C@H](N(C)C)C(O)=C(C(N)=O)C(=O)[C@@]3(O)C(O)=C1C2=O [minocycline]
sensitivity of TEX cells (viability): not sensitive

CN(C)[C@@H]1C(O)=C(C(N)=O)C(=O)[C@@]2(O)C(O)=C3C(=O)c4c(O)cccc4[C@@](C)(O)[C@H]3C[C@@H]12 [tetracycline]
sensitivity of TEX cells (viability): not sensitive
